# Source: publication PMC12670160, “A drug-repurposing screen of FDA- and EMA-approved drugs identifies two NF-κB inhibitors active against eumycetoma” (Journal of Antimicrobial Chemotherapy, 2025)
# Counter-ions that a name gives are not always drawn. Hit rate of the full screen: of about 5,300 compounds, about 130 (2.5%) showed an effect of 50% or more. The list shows a part of the results. Numbered stars: 1 amine (or outer) side, 2 acyl side, 3 side chain; on linkers, the order of the positions; unused ones are H or OH. Square brackets hold non-standard residues; d marks the D form. Side chains are listed from the residue outwards. Peptide text beside a SMILES is read from it. * marks the point of attachment. Ethylenediamine = C(CN[*:2])N[*:1]; Hyp = O=C(O)[C@@H]1C[C@@H](O)CN1; Phg = N[C@H](C(=O)O)c1ccccc1; CO = O=C([*:1])[*:2]; Bn = c1ccc(C*)cc1
# Tested on: M. mycetomatis strain mm55
# Settings: primary screen, metabolic activity vs growth control; 96 h, 2 µM; inhibitor
row,Compound,% viability [%]
1,"CC(=O)OC[C@H](N)C(=O)O.Cl [ONC0000420, oacetyllserine hcl]",77.43
2,"C[C@@H]1CC[C@@]2(OC1)O[C@H]1C[C@H]3[C@@H]4CC=C5C[C@H](O[C@@H]6O[C@@H](CO)[C@@H](O[C@@H]7O[C@@H](C)[C@H](O)[C@@H](O)[C@@H]7O)[C@H](O)[C@H]6O[C@@H]6O[C@@H](C)[C@H](O)[C@@H](O)[C@H]6O)CC[C@]5(C)[C@@H]4CC[C@]3(C)[C@@H]1[C@H]2C [ONC0004349, dioscin collettiside iii]",88.26
3,"O=C(CCn1cnc2c(=O)[nH]cnc21)Nc1ccc(C(=O)O)cc1 [ONC0005387, leteprinim]",88.09
4,"COc1cccc(N2CCN(C3=Nc4c(F)cccc4[C@H](CC(=O)O)N3c3cc(C(F)(F)F)ccc3OC)CC2)c1 [ONC0000806, letermovir]",78.78
5,"CN(C)CCOC(C)(c1ccccc1)c1ccccn1 (centres unmarked) [ONC0000671, doxylamine succinate]",142.6
6,"CNC(=O)c1cccc(-c2ccc3c(N4CCOC[C@@H]4C)nc(N4CCOC[C@@H]4C)nc3n2)c1 [ONC0005277, vistusertib azd2014]",121.5
7,"C=CCNC(N)=S [ONC0005302, allylthiourea]",88.44
8,"COC(=O)/C=C/c1cc(O)ccc1O [ONC0001421, erbstatinanalog]",83.71
9,"COc1ccccc1OCC(O)CNC(C)C (centres unmarked) [ONC0003655, moprolol]",69.09
10,"Nc1ccn([C@H]2CC[C@@H](CO)O2)c(=O)n1 [ONC0003905, zalcitabine]",70.49
11,"CC(C)OC(=O)N1CCC(Oc2ncnc3c2cnn3-c2ccc(S(C)(=O)=O)cc2F)CC1 [ONC0001197, apd668]",88.83
12,"O=C1c2ccccc2NC2=CCCCCN12 [ONC0003231, 78910tetrahydroazepino21bquinazolin126hone]",99.72
13,"OC(CCCN1CCN(c2ncc(F)cn2)CC1)c1ccc(F)cc1 (centres unmarked) [ONC0003078, bmy14802]",69.85
14,"COc1cc(/C=C/C(N)=O)cc(OC)c1OC [ONC0003157, cintriamide]",86.24
15,"CN(C(=O)C(Cl)Cl)c1ccc(OC(=O)c2ccco2)cc1 [ONC0003891, diloxanide furoate]",73.42
16,"CCCCCCCCCCCCCCCc1cccc(OCC(=O)NCCO)c1 [ONC0003083, pdpea]",82.41
17,"O=C(Nc1ccccc1C(=O)NC1CCCCNC1=O)c1cc2ccccc2s1 (centres unmarked) [ONC0000199, ana12]",69.04
18,"COc1cccc(C(=O)CCN[C@@H](C)[C@H](O)c2ccccc2)c1 [ONC0001994, oxyfedrine]",84.7
19,"CSc1nc2ccc3nc(NC(=O)C(c4ccccc4)c4ccccc4)sc3c2s1 [ONC0000063, gue1654]",103.5
20,"N#Cc1cc(NC(=O)C(=O)O)c(Cl)c(NC(=O)C(=O)O)c1 [ONC0002293, lodoxamide]",84.84

# Fetched one by one from the list above, two records:
row,Compound,% viability [%]
16,"CCCCCCCCCCCCCCCc1cccc(OCC(=O)NCCO)c1 [ONC0003083, pdpea]",82.41
11,"CC(C)OC(=O)N1CCC(Oc2ncnc3c2cnn3-c2ccc(S(C)(=O)=O)cc2F)CC1 [ONC0001197, apd668]",88.83

# The listing continues.

row,Compound,% viability [%]
1,"Cc1cccc(C)c1OCC(C)N (centres unmarked) [ONC0002391, mexiletine hydrochloride]",87.09
2,"O=C(/C=C/c1ccc2c(c1)OCO2)N1CCCCC1 [ONC0002363, ilepcimide]",63.52
3,"O=C(Nc1ccc(Oc2ccc(Cl)cn2)c(Cl)c1)c1ccccn1 [ONC0003686, vu0422288]",84
4,"CC(=O)Oc1c(C)cc(OCC(O)CNC(C)C)c(C)c1C (centres unmarked) [ONC0003410, metipranolol]",54.1
5,"CCOc1cc(OCC)c(C(=O)CCC(=O)O)cc1OCC [ONC0000289, trepibutone]",73.35
6,"COc1ccccc1N1CCN(CCCCN2C(=O)c3ccccc3C2=O)CC1 [ONC0001540, nan190]",85.08
7,"CCOC(=O)Nc1ccc2c(c1)N(C(=O)CN(C)C)c1ccccc1CC2 [ONC0002826, tiracizine]",78.27
8,"O=C(O)c1cc(O)c2c(Cl)cc(Cl)cc2n1 [ONC0001427, 57dichlorokynurenicacid]",78.42
9,"O=C(CCCCCCCC(=O)NCCO)NCCO [ONC0000286, adelmidrol]",65.71
10,"CCOc1ccc(Nc2nc(-c3c(C)nc4ccccn34)cs2)cc1 [ONC0000824, jk184]",102.1
11,"Cc1cc(I)ccc1Nc1c(C(=O)NOCC2CC2)cc(F)c(F)c1F [ONC0003526, pd198306]",112.8
12,"Cc1cc(=O)[nH]c(=S)[nH]1 [ONC0000474, methylthiouracil]",91.87
13,"Cc1ccc(-c2nn(C(C)(C)CNC(=O)c3ncccc3C)c3ncnc(N)c23)cc1 [ONC0001927, wehi345 analog]",93.39
14,"COc1ccccc1OCC(O)CO (centres unmarked) [ONC0000374, guaifenesin]",64.47
15,"C=C1/C(=C/C=C2\CCC[C@]3(C)[C@@H]([C@H](C)/C=C/[C@@H](C)C(C)C)CC[C@@H]23)C[C@@H](O)C[C@@H]1O [ONC0004870, doxercalciferol hectorol]",79.32
16,"C[C@@H]1O[C@@H](Oc2c(-c3cc(O)c(O)c(O)c3)oc3cc(O)cc(O)c3c2=O)[C@@H](O)[C@H](O)[C@H]1O [ONC0004958, myricitrin myricitrine]",68.08
17,"CC[C@]1(O)C[C@H]2CN(CCc3c([nH]c4ccccc34)[C@@](C(=O)OC)(c3cc4c(cc3OC)N(C=O)[C@H]3[C@@](O)(C(=O)OC)[C@H](OC(C)=O)[C@]5(CC)C=CCN6CC[C@]43[C@@H]65)C2)C1 [ONC0002022, vincristine sulfate]",106.7
18,"NC[C@@H]1O[C@H](O[C@H]2[C@@H](O)[C@H](O[C@@H]3[C@@H](O)[C@H](N)C[C@H](N)[C@H]3O[C@H]3O[C@H](CO)[C@@H](O)[C@H](O)[C@H]3N)O[C@@H]2CO)[C@H](N)[C@@H](O)[C@@H]1O [ONC0005310, paromomycin]",134.8
19,"Nc1nc(CC(=O)Nc2ccc(CCNC[C@H](O)c3ccccc3)cc2)cs1 [ONC0004810, mirabegron ym178]",76.32
20,"NC(=O)c1ccc2[nH]ccc2c1 [ONC0002948, sd169]",85.1

row,Compound,% viability [%]
1,"CC(C)(C)Nc1nc(Nc2ccc(C(N)=O)cc2)cc(N)c1C#N [ONC0002695, tcmps112]",55.9
2,"Brc1ccc(NC2C3CC4CC(C3)CC2C4)cc1 (centres unmarked) [ONC0003854, bromantan]",62.63
3,"Cc1c(N(C)C)c(=O)n(-c2ccccc2)n1C [ONC0003206, aminopyrine]",63.7
4,"Oc1c(Cl)cc(Cl)c(Cl)c1Cc1c(O)c(Cl)cc(Cl)c1Cl [ONC0000366, hexachlorophene]",158.2
5,"Cc1oc(=O)oc1COC(=O)C1=C([C@H]2CCCO2)S[C@@H]2[C@@H]([C@@H](C)O)C(=O)N12 [ONC0001072, faropenem daloxate]",41.67
6,"CCOc1cc2ncc(C#N)c(Nc3ccc(F)c(Cl)c3)c2cc1NC(=O)/C=C/CN(C)C [ONC0004888, pelitinib ekb569]",142.6
7,"Cc1cc(/C=C/C#N)cc(C)c1Nc1ccnc(Nc2ccc(C#N)cc2)n1 [ONC0005185, rilpivirine]",107.3
8,"CN(C)c1cc(NC(=O)CNC(C)(C)C)c(O)c2c1C[C@H]1C[C@H]3[C@H](N(C)C)C(=O)C(C(N)=O)C(=O)[C@@]3(O)C(=O)C1C2=O (some centres unmarked) [ONC0005493, tigecycline]",77.34
9,"COc1cc2c(cc1O)C(CCc1ccc(Cl)cc1)N(C)CC2 (centres unmarked) [ONC0000203, ro045595]",65.42
10,"N#Cc1cnc2c(Cl)cc(NCc3cn(CCN4CCCCCC4)nn3)cc2c1Nc1ccc(F)c(Cl)c1 [ONC0000779, cot inhibitor1]",49.03
11,"Oc1ccc(/C=C/c2cc(O)cc(O)c2)cc1 [ONC0001122, resveratrol]",51.21
12,"CCN(CC)Cc1ccc(C(=O)N(CCc2ccccc2OC)[C@@H]2CCNC2)cc1 [ONC0002565, pf429242]",67.81
13,"CCOC(=O)C1=C(COCCN)NC(C)=C(C(=O)OC)C1c1ccccc1Cl (centres unmarked) [ONC0004005, amlodipine besylate]",63.47
14,"NCCCC[C@@H]1NC(=O)[C@@H](Cc2c[nH]c3ccccc23)NC(=O)[C@H](c2ccccc2)NC(=O)[C@@H]2C[C@@H](OC(=O)NCCN)CN2C(=O)[C@H](Cc2ccccc2)NC(=O)[C@H](Cc2ccc(OCc3ccccc3)cc2)NC1=O [ONC0002267, pasireotide ditrifluoroacetate] (cyclo([Hyp]([CO-Ethylenediamine])[Phg][dW]KY(Bn)F))",70.05
15,"COc1ccc(/C=C/C(=O)Nc2ccccc2C(=O)O)cc1OC [ONC0003901, tranilast]",58.84
16,"CCN(CC)CCNC(=O)c1c(C)[nH]c(/C=C2\C(=O)Nc3ccc(F)cc32)c1C [ONC0002430, sunitinib]",105.9
17,"COc1ccc(-n2nc(C(F)(F)F)cc2-c2ccc(Cl)cc2)cc1 [ONC0001467, sc560]",59.03
18,"COc1ccc(C2=NC(c3ccc(Cl)cc3)C(c3ccc(Cl)cc3)N2C(=O)N2CCNC(=O)C2)c(OC(C)C)c1 (centres unmarked) [ONC0004648, nutlin3]",96.53
19,"Nc1ccncc1 [ONC0000653, fampridine]",146.4
